Drawing on publication PMC7819943, “Rice protein-binding microarrays: a tool to detect cis-acting elements near promoter regions in rice”, this text covers binding signal for 42 sequences.

The other results are listed elsewhere or left out.

For the experiment, the target named is T1, OsSMF1 (Oryza sativa, UniProt Q6ZLB0 1-436).
T1 sequence: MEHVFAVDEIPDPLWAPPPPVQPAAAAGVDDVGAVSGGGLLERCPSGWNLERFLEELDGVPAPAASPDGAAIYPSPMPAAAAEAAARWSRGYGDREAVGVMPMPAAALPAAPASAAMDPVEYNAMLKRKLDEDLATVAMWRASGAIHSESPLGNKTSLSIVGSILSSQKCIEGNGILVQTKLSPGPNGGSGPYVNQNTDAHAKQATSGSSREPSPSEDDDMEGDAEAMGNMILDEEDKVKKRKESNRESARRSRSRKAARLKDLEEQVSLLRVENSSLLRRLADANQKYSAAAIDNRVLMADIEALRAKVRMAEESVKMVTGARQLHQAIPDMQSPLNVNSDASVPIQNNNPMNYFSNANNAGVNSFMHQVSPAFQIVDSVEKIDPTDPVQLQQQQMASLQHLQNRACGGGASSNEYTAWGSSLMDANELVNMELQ
In words: protein-binding microarray (RPBM); PBS, 2% BSA, 51.3 ng/ul salmon testes DNA, 50 uM zinc acetate, 200 nM TF, 25 C, 1 h; high values mean tight binding. As to conditions: protein: recombinant; tags: N-terminal polyhistidine and DsRed monomer fusion (pET32a); chain copies: 2; label: CyDye5-dUTP incorporated in the synthesized complementary strand; 3' TTTTT single-stranded linker to array surface; dsDNA, one strand shown. The gist of the method:
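Transcription factors were each fused at the N-terminus to a polyhistidine tag plus DsRed and expressed in E. coli BL21-CodonPlus before Ni–NTA purification. Binding to a double-stranded custom Agilent array was carried out with 200 nM protein at 25 °C for 1 h in PBS, 2% BSA, salmon testes DNA and 50 µM zinc acetate. The binding signal is per-feature fluorescence intensity, in arbitrary units, on an Axon 4000B scanner.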
Consider “CACGGCGATCACGACCAAGGCCGACGTGTTCAGCTACGGGCGGAGTCACCTAGTGCAG”, for which the binding signal is 5820 fluorescence intensity (a.u.).
As to “GGTGCTAGCAATGGGCTGACTAGGTACGATCTATCATGTACGGAGTCACCTAGTGCAG”, the binding signal was 3240 fluorescence intensity (a.u.).
As for “GTTTCGTTTCGTGGAAGAGTTCGATTCCAGCTAATATAATCGGAGTCACCTAGTGCAG”, the binding signal is 3690 fluorescence intensity (a.u.).
The figure for “GTCATTTTGCCTGTTGACTCAGACATAGGATTGCTTGACGCGGAGTCACCTAGTGCAG” is 10000 fluorescence intensity (a.u.); for “TCCCGCCACGCAGAGGAGTCAGGGCGTCGACGCGGTCGATCGGAGTCACCTAGTGCAG” it is 3320 fluorescence intensity (a.u.).
On to “TAGTAGTCAGAAACCCGATGTACGTCGTCCCATGCTACTGCGGAGTCACCTAGTGCAG”, for which the binding signal is 3750 fluorescence intensity (a.u.).
Consider “TTCCCAAACCACCGGACCGGGGTTACCACACGGTAACCGTCGGAGTCACCTAGTGCAG”, for which the binding signal is 30700 fluorescence intensity (a.u.).
Turning to “AACATAGTATATGATACAATCATCTCTATGATTGCCTCTACGGAGTCACCTAGTGCAG”, the binding signal was 3950 fluorescence intensity (a.u.).
As to “ACCTATCGAAAGTTTGCTCATCAGTACGTCATTCTCGATCCGGAGTCACCTAGTGCAG”, the binding signal is 3380 fluorescence intensity (a.u.).
The figure for “CTCCGATGAAATATTCGAAAGCGAAGCCACGTGGTTTGACCGGAGTCACCTAGTGCAG” is 7790 fluorescence intensity (a.u.); for “CTGCCGCTATAAATACTCATCTCATCTCATCATCCACCATCGGAGTCACCTAGTGCAG” it is 4330 fluorescence intensity (a.u.).
Consider “GGCAAATGATGACTCGTTTCAGATTCTTCACAAATAAATCCGGAGTCACCTAGTGCAG”, for which the binding signal was 3790 fluorescence intensity (a.u.).
For the sequence “TTATTGCAAAATAGAAGGATGACGCCACGACGGCCGCTGCCGGAGTCACCTAGTGCAG”, the binding signal was 3330 fluorescence intensity (a.u.).
“AAGGGTTCAAAACTGGGTCAGGGCTGAGTGAAATGCATAACGGAGTCACCTAGTGCAG”: the binding signal was 17500 fluorescence intensity (a.u.).
For the sequence “CAACAGCCGCGAGGCGAGACGACGATGACGCCGCCTATGGCGGAGTCACCTAGTGCAG”, the binding signal was 4840 fluorescence intensity (a.u.).
For the sequence “TCGACCGCGTCATCTCGTCCAAGCCCTCCATATGCTTCCACGGAGTCACCTAGTGCAG”, the binding signal was 5850 fluorescence intensity (a.u.).
On to “AAACTTTACTCCTCTAGATCTAAACTTTACACGCCAGTTGCGGAGTCACCTAGTGCAG”, for which the binding signal is 3760 fluorescence intensity (a.u.).
The figure for “CCCGTAACACGAGTCCACCTCCCGTTCCCGCCACCACCATCGGAGTCACCTAGTGCAG” is 3520 fluorescence intensity (a.u.); for “CACCGCTTCTCTCCTCTCCCACTCCTCTCCTTCTCCTTCTCGGAGTCACCTAGTGCAG” it is 8140 fluorescence intensity (a.u.); for “TGTTCGGCAGCAAGGACAGGTGGGCTTGACACAGGCATATCGGAGTCACCTAGTGCAG” it is 3350 fluorescence intensity (a.u.).
Take “TACAATAGAGTATGTGGTGGGGACACGTGGCAGTGTGGGTCGGAGTCACCTAGTGCAG”: the binding signal is 33000 fluorescence intensity (a.u.).
On to “AGGCCCACATGCCTCTCGCCTTATAAGTAGCCGAGGCAGTCGGAGTCACCTAGTGCAG”, for which the binding signal was 32600 fluorescence intensity (a.u.).
In the case of “GCGTCGCCACTGCCGCCGCTTTCTCCACCGCCGTCGCCACCGGAGTCACCTAGTGCAG”, the binding signal is 12200 fluorescence intensity (a.u.).
Regarding “CACCGCGCCGTGGGCTGCGTGGCGTGGCTCGCCGCGGGGTCGGAGTCACCTAGTGCAG”, the binding signal was 5400 fluorescence intensity (a.u.).
Consider “ACACTTATCGACGTGCCAGCGCGACGCAATATGCTCCGATCGGAGTCACCTAGTGCAG”, for which the binding signal was 5400 fluorescence intensity (a.u.).
For the sequence “ATCTATCAATTTTATTGAAGATGTGACGTGTGAGTGTGGACGGAGTCACCTAGTGCAG”, the binding signal was 11400 fluorescence intensity (a.u.).
As for “ATGCTGTGATCCAACTTGTTGTACAGAACCTCATGCATTACGGAGTCACCTAGTGCAG”, the binding signal was 3740 fluorescence intensity (a.u.).
The figure for “ATGTGATTAAATGGAGGGTTTTCGGGGAGGGTTTTCGGGGCGGAGTCACCTAGTGCAG” is 4170 fluorescence intensity (a.u.).
In the case of “CTATCCCTCAAGTGTTTGGGATGCTGTCAAGTTTGGTTGACGGAGTCACCTAGTGCAG”, the binding signal was 3300 fluorescence intensity (a.u.).
The figure for “CGCTCGTCGCCACATCGCTTGCTTCCCCGTCACTCCCACTCGGAGTCACCTAGTGCAG” is 3480 fluorescence intensity (a.u.); for “CGCCGACCTCAGCTGCTGCGTCATCCCACCGACGTCAGCACGGAGTCACCTAGTGCAG” it is 16800 fluorescence intensity (a.u.); for “AGGTTTCGGGAACCGTCGGATCAGATTTCCATGGTCCAGACGGAGTCACCTAGTGCAG” it is 19800 fluorescence intensity (a.u.).
With “TCCTAGCCTAGCTTCCATCGACTTGGCCCCACCTGGCAGCCGGAGTCACCTAGTGCAG”, the binding signal is 9240 fluorescence intensity (a.u.).
The figure for “ATTAAGTATCCTAGGAGATAAATACCATGTCACATTGTCACGGAGTCACCTAGTGCAG” is 8690 fluorescence intensity (a.u.); for “CCCTACGTGCACACATCCAGCTCCATTATATAGCCATTTTCGGAGTCACCTAGTGCAG” it is 54800 fluorescence intensity (a.u.).
Take “CGTGTGACTGTGTTTGTGACGCGGTGGCTGGTGAAGGCCGCGGAGTCACCTAGTGCAG”: the binding signal is 3750 fluorescence intensity (a.u.).
In the case of “CAACGTGGACAGCACACGCGTACGTGTGGGCCCGGTCGGCCGGAGTCACCTAGTGCAG”, the binding signal was 7040 fluorescence intensity (a.u.).
The figure for “GCGGGATCACAAACGTGGTTTCCCATCCCTGTCTTAATGTCGGAGTCACCTAGTGCAG” is 3680 fluorescence intensity (a.u.); for “AGTTCTACAAGCCTACAATTTTGACATGCTGTACAAGAGGCGGAGTCACCTAGTGCAG” it is 3370 fluorescence intensity (a.u.); for “TCCCGGCCATCTTCTTCTCAAAGTCTCTAACTCTAATAAGCGGAGTCACCTAGTGCAG” it is 31700 fluorescence intensity (a.u.).
“CTTACTAAATTGCAATATGCACTGGCGGCGTCGTCAGCACCGGAGTCACCTAGTGCAG”: the binding signal was 5720 fluorescence intensity (a.u.).
Regarding “TGGCCATTGACGTGCATACTTTAATCGACTAATCAATTCCCGGAGTCACCTAGTGCAG”, the binding signal is 3540 fluorescence intensity (a.u.).
